# Experimental data reported in paper PMC12224947.
# These are yes or no findings as the source states them, for the method shown. Binding seen in cells or lysates may run through a third protein. Binding can be weak; no strength is given. For some assays here: Sequences can lack the tags named with a protein.
# How the values were obtained:
# Myc-PHB1 = target: T1, Myc-PHB1 (UniProt P35232); assay: co-IP; HEK293T cells transfected for 24 h with different doses of Flag-ARIH1 together with Myc-PHB1 and His-Akt
# T1 sequence: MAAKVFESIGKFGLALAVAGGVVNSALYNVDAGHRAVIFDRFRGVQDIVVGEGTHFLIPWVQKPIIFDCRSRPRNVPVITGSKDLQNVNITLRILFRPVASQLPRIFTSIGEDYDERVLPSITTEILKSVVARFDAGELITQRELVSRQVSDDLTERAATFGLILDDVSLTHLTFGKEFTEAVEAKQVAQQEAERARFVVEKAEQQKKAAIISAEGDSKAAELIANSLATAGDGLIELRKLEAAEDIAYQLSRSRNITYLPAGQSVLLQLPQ
# [1] = target: T2, Prohibitin 1 (PHB1) (human (endogenous in DLD-1, HCT116 and SW480)) (UniProt P35232); assay: co-IP; endogenous PHB1 and Akt; lysates of SW480 cells overexpressing ARIH1 and of DLD-1 and HCT116 cells with shARIH1, with their controls
# T2 sequence: T1 sequence
binding (Myc-PHB1),binding [1],Substance
binds,,His-Akt
,binds,Akt
